Measurements: PubChem BioAssay AID1487 (National Center for Advancing Translational Sciences (NCATS), 2009)
Some of the results follow. The main result of the screen is listed elsewhere. These columns were measured beside it and carry no call. Most of these compounds were active or inconclusive in the main read-out, so they are no random draw. Potencies come from curve fits of mixed quality, noted in brackets.

Experiment: qHTS Assay for Modulators of Lamin A Splicing
Settings: HeLa LMNA splicing GFP/RFP minigene ratio, 48 h
Summary of the method: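 S3 HeLa stable clones carrying a lamin A-EGFP splicing minigene plus DsRed2 were seeded at 600 cells/well in Opti-MEM with 2% FBS, pin-dosed and incubated 48 h at 37°C. Acumen cytometry (488 nm) gave the GFP/RFP total-intensity ratio.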

[1] = measured here: RFP viability control channel
[2] = measured here: GFP splicing reporter channel

SMILES	AC50 [1]	AC50 [2]
COc1cc(/C=N/Nc2cc(C)nc(NS(=O)(=O)c3ccc(C)cc3)n2)ccc1O	7.08 µM [rising, partial curve]	–
COc1ccccc1N1CCN(C(c2ccccc2)c2nnnn2CCc2ccccc2)CC1 (stereo not drawn)	31.6 µM [rising, single point]	17.8 µM [rising, single point]
Cc1[nH]n(-c2ccccc2)c(=O)c1C(c1cccc([N+](=O)[O-])c1)c1c(C)[nH]n(-c2ccccc2)c1=O	–	0.141 µM [falling, partial curve, poor fit]
COc1ccc(OC)c(NC(=O)COC(=O)Cc2ccc(Br)cc2)c1	–	0.355 µM [rising, full curve, poor fit]
CC1(C)Oc2ccc3ccc(=O)oc3c2/C(=C/Nc2ccc(O)cc2)C1=O	35.5 µM [falling, single point]	20 µM [falling, single point]
CN(C1CCCCC1)S(=O)(=O)c1ccc(NC(=S)NC(=O)c2cccs2)cc1	–	35.5 µM [rising, single point]
Cn1c(NCc2cccnc2)nc2c1c(=O)n(Cc1ccccc1F)c(=O)n2C	11.2 µM [rising, single point]	–
Cc1ccccc1NS(=O)(=O)c1cc(C(=O)Nc2cccc([N+](=O)[O-])c2)ccc1C	17.8 µM [rising, partial curve, poor fit]	–
CCCn1cnc2scc(-c3ccc(C)cc3)c2c1=O	11.2 µM [falling, partial curve]	11.2 µM [falling, partial curve, poor fit]
CC(C)(C)c1ccc(C(=O)NC(=S)Nc2nc3c(s2)CCCC3)cc1	15.8 µM [rising, partial curve]	15.8 µM [rising, partial curve]
Cc1ncc(CO)c(/C=N/NC(=S)Nc2ccc(F)cc2)c1O	35.5 µM [rising, single point]	–
N#Cc1ccc(C(=O)Nc2nc(-c3cccs3)c(C(=O)C(F)(F)F)s2)cc1	5.62 µM [rising, partial curve]	1 µM [rising, single point]
Cc1cc(C)cc(N(CC(=O)NCc2ccc3c(c2)OCO3)C(=O)CCC(=O)Nc2ccccn2)c1	0.224 µM [rising, full curve, poor fit]	3.55 µM [rising, partial curve, poor fit]
CCN1C(=O)c2cccc3c(NS(=O)(=O)c4ccc(NC(C)=O)cc4)ccc1c23	10 µM [rising, partial curve]	–
Cn1cc(Cl)c(-c2n[nH]c(=S)n2-c2ccccc2)n1	–	5.01 µM [rising, single point]
O=C(CC1C(=O)OCC2CCCCN21)Nc1ccccc1C(F)(F)F (stereo not drawn)	3.98 µM [falling, single point]	–
CCOC(=O)c1ccc(-c2ccc(/C=C(\C#N)C(=O)Nc3cccc(C)c3)o2)cc1	2.51 µM [falling, single point]	–
Cc1nn(C)cc1NC(=O)c1ccc(Br)o1	35.5 µM [rising, single point]	–
Cc1cccc(OCC(=O)N/N=C/c2cn[nH]c2-c2ccc(Cl)c(Cl)c2)c1	35.5 µM [falling, partial curve]	35.5 µM [falling, single point]
COc1ccc(-n2c(=O)cnc3cnc(N(C)C)nc32)cc1	–	10 µM [falling, partial curve]
Cc1ccccc1-c1nc(NCc2cccs2)c2ccccc2n1	20 µM [falling, single point]	12.6 µM [falling, partial curve]
COc1ccc(-c2cc(-n3c(C(F)(F)F)nc4ccccc43)n(CCC#N)n2)cc1	–	12.6 µM [rising, single point]
COc1ccc(C(=O)/C=C/N(C)C)cc1OC	20 µM [rising, single point]	12.6 µM [rising, single point]
COc1ccc(CNC(=O)c2cc(-c3ccccc3OC)on2)cc1	35.5 µM [rising, single point]	–
O=C(CSc1nnc(-c2ccccc2Cl)o1)N1CCCCC1	10 µM [rising, partial curve]	–
Nc1nc(=S)c2ncn([C@H]3O[C@@H](CO)[C@@H](O)[C@@H]3O)c2[nH]1	1.12 µM [falling, partial curve, poor fit]	14.1 µM [falling, single point]
Cc1nc(N)sc1-c1csc(N(C)c2ccc(O)cc2)n1	11.2 µM [rising, single point]	14.1 µM [rising, single point]
Cc1cc(Nc2cccc(F)c2)nc(NCc2ccccc2)n1	14.1 µM [rising, partial curve]	17.8 µM [rising, partial curve, poor fit]

Given bar-delimited: part of the list above.
SMILES | AC50 [1] | AC50 [2]
Cc1nn(C)cc1NC(=O)c1ccc(Br)o1 | 35.5 µM [rising, single point] | –
Cc1cccc(OCC(=O)N/N=C/c2cn[nH]c2-c2ccc(Cl)c(Cl)c2)c1 | 35.5 µM [falling, partial curve] | 35.5 µM [falling, single point]
COc1ccc(-n2c(=O)cnc3cnc(N(C)C)nc32)cc1 | – | 10 µM [falling, partial curve]
Cc1ccccc1-c1nc(NCc2cccs2)c2ccccc2n1 | 20 µM [falling, single point] | 12.6 µM [falling, partial curve]

More structures follow:

SMILES	AC50 [1]	AC50 [2]
Cc1cccc(OC(C)C(=O)N2CCC(c3nc4ccccc4o3)CC2)c1C (stereo not drawn)	22.4 µM [falling, partial curve, poor fit]	20 µM [falling, partial curve]
O=C1c2ccccc2C(=O)c2c(NCCCN(CCO)CCO)cccc21	2.82 µM [rising, partial curve]	–
Fc1ccccc1CSc1nnnn1-c1ccc2c(c1)OCO2	35.5 µM [rising, single point]	35.5 µM [rising, single point]
O=c1c(-c2ccc(F)cc2)nc2cnc(N3CCNCC3)nc2n1Cc1ccc(F)cc1	22.4 µM [falling, partial curve]	20 µM [falling, single point]
COc1ccc(CCNC(=O)CSCc2ccc([N+](=O)[O-])cc2)cc1OC	12.6 µM [rising, single point]	–
Cc1oc(-c2ccc(C(=O)N(C)Cc3ccccc3)cc2)nc1CN1CCc2ccccc21	25.1 µM [rising, single point]	–
Cc1cc(C)nc(NC(=O)c2csnn2)c1	0.316 µM [falling, partial curve]	–
CC(=O)/C(C#N)=C1\NC(=O)C(Cc2ccc(C)c(C)c2)S1 (stereo not drawn)	3.55 µM [rising, full curve]	1.41 µM [rising, full curve]
O=C(Nc1ccc2c(c1)OCCO2)c1ccc(Cl)c(S(=O)(=O)N2CCOCC2)c1	12.6 µM [rising, partial curve]	10 µM [rising, partial curve, poor fit]
O=C(O)c1cc2c(ccc3ccccc32)[nH]1	14.1 µM [rising, single point]	–
Cc1cccc(N2CCN(C(=O)CCNS(=O)(=O)c3ccc4c(c3)CCN4C(=O)C3CC3)CC2C)c1 (stereo not drawn)	–	28.2 µM [falling, partial curve, poor fit]
Cc1cc(SCC(=O)N/N=C/c2cccnc2)nc2c(C)cccc12	35.5 µM [falling, single point]	20 µM [falling, partial curve]
O=C(Nc1cccc2ccccc12)N1CCCN(c2c(Cl)cncc2Cl)CC1	14.1 µM [falling, partial curve]	–
COc1ccc(NS(=O)(=O)c2ccc(N)cc2)nn1	0.00355 µM [rising, full curve, poor fit]	0.00447 µM [falling, full curve, poor fit]
c1ccc(CNc2ncnc3[nH]ncc23)cc1	0.251 µM [falling, full curve, poor fit]	0.316 µM [falling, full curve, poor fit]
COc1cc([N+](=O)[O-])ccc1N/C=C/C(=O)c1cccs1	5.62 µM [falling, full curve]	1.78 µM [falling, full curve]
Cc1ccc(S(=O)(=O)N(C)CCCC(=O)Nc2ccc(C)cc2C)cc1	17.8 µM [rising, partial curve]	–
COc1ccc(/C=N/NC(=O)c2ccoc2C)cc1COc1c(C)cccc1C	17.8 µM [rising, single point]	12.6 µM [rising, single point]
CCc1nc(Sc2nc(C)cc(C)n2)c2oc3ccccc3c2n1	11.2 µM [rising, partial curve]	–
CCc1ccccc1NC(=O)N1CC(CC)Oc2ccc(Cl)cc21 (stereo not drawn)	14.1 µM [rising, partial curve, poor fit]	–
C/C(=N\NC(=O)CNc1cccc(C(F)(F)F)c1)c1cccc(Br)c1	0.224 µM [rising, full curve, poor fit]	–
Cc1ccccc1C(=O)OC1OC(=O)C(Cl)=C1N1CCOCC1 (stereo not drawn)	–	3.55 µM [falling, single point]
O=C(N1CCCC1)C(F)(F)Oc1ccc(F)cc1	–	1.78 µM [falling, full curve, poor fit]
O=C(Nc1nnc(SCc2ccc(F)cc2)s1)C1CC(=O)N(Cc2ccccc2)C1 (stereo not drawn)	20 µM [rising, partial curve]	–
CCc1ccc(N2CCN(C(=O)c3ccc(OC)c(OC)c3)CC2)cc1	25.1 µM [rising, partial curve]	–
O=C(CC(=O)c1ccccc1)Nc1cccnc1	–	0.158 µM [falling, full curve, poor fit]
CCCn1c(CCC(=O)O)ccc1-c1ccc(OC)cc1	10 µM [rising, partial curve, poor fit]	15.8 µM [rising, partial curve, poor fit]
